Some of the results follow. The main result of the screen is listed elsewhere. These columns were measured beside it and carry no call. The list favours compounds with an active or inconclusive main result. The note in brackets gives the kind of curve behind each potency; many fits are weak.
Test: qHTS Assay to Find Inhibitors of Chronic Active B-Cell Receptor Signaling
Conditions: ABC-DLBCL IkBa-CBG/CBR reporter, luminescence ratio (green luciferase fused to IkBa over red control in TMD8 lymphoma cells), 4 h
How it was run: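 Concentration-response series (up to 46 uM) were applied to TMD8 dual-reporter cells for 4 h at 37C with doxycycline. Green/red ratio, after filter-overlap correction, defined %Activity; red signal alone was normalised to basal cells and zero luminescence.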

[1] = measured here: CBR red luminescence, cell number
[2] = measured here: IkBa-CBG green luminescence

SMILES | AC50 [1] | AC50 [2]
COc1ccc(CCC(=O)N2CCCc3ccccc32)cc1 | 1.58 µM [rising, full curve, poor fit] | 
O=C1C=CC(=O)N1c1ccc(N2CCCCC2)cc1 | 10 µM [falling, partial curve] | 11.2 µM [rising, partial curve, poor fit]
CCOC(=O)NC1(C(F)(F)F)NC(=O)N(Cc2ccco2)C1=O (stereo not given) | 29.1 µM [falling, single point] | 
Cc1ccc(OCCC(=O)OCC(=O)N2CC(=O)Nc3ccccc32)cc1 | 4.61 µM [falling, full curve] | 
COc1cccc(N/C=C(\C#N)c2ccc(OCCCF)cc2)c1 | 16.4 µM [falling, single point] | 
CC(C)c1ccc(/C=N/Nc2ccc(C(=O)O)cc2)cc1 | 0.058 µM [falling, full curve] | 
CCOC(=O)C1CCN(C(=O)COC(=O)c2nn(C)c(=O)c3ccccc23)CC1 | 11.6 µM [falling, partial curve, poor fit] | 
Cc1[nH]n(-c2ccccc2)c(=O)c1-c1ccc(Cl)cc1 | 6.51 µM [falling, single point] | 
CCOCC(=O)Nc1nc2ccc(OCC)cc2s1 | 13 µM [falling, single point] | 
CC(C)NC(=O)c1cc(-c2ccc3c(c2)OCO3)on1 | 7.08 µM [falling, partial curve] | 
Clc1ccccc1OCc1nc(-c2ccncc2)no1 | 18.4 µM [rising, partial curve, poor fit] | 
Cc1ccc(-c2nnc(NC(=O)c3ccco3)o2)c(C)c1 | 3.66 µM [falling, full curve] | 
Cc1nn(Cc2c(F)c(F)c(F)c(F)c2F)c(C)c1NC(=O)c1ccc(COc2ccccc2Cl)cc1 | 3.98 µM [falling, full curve, poor fit] | 
CC1(C(=O)O)CCC(C(=O)Nc2ccc(OC(F)(F)Cl)cc2)C1(C)C (stereo not given) | 35.5 µM [rising, partial curve, poor fit] | 
CN(Cc1ccccc1F)c1nc(-c2cccnc2)nc2ccccc12 | 35.5 µM [falling, single point] | 35.5 µM [rising, partial curve, poor fit]
Cc1cc(C)c(C#N)c(N2CCN(Cc3ccc4c(c3)OCO4)CC2)n1 | 0.794 µM [rising, full curve, poor fit] | 
Cc1ccc(C)c(/C=C/C(=O)c2ccccc(=O)c2O)c1 | 18.4 µM [falling, single point] | 23.1 µM [falling, partial curve, poor fit]

Exported field by field: part of the list above
COc1cccc(N/C=C(\C#N)c2ccc(OCCCF)cc2)c1
  AC50 [1]: 16.4 µM [falling, single point]
CC(C)NC(=O)c1cc(-c2ccc3c(c2)OCO3)on1
  AC50 [1]: 7.08 µM [falling, partial curve]

Reference: PubChem BioAssay AID493014 (National Center for Advancing Translational Sciences (NCATS), 2011)
